# According to PubChem BioAssay AID485314 (National Center for Advancing Translational Sciences (NCATS), 2010):
# About 4,500 (1.3%) of roughly 340,000 compounds were called active. The shares of active, inactive and inconclusive entries below differ from those in the screen. The call rests on the fitted dose curve; in most records, active means well fitted inhibition curve with a large enough effect; inconclusive means small, poorly fitted or top-dose-only effect, or another doubt; inactive means no such curve, though single readings can be large or run the other way. A potency beside an inconclusive call is a rough fit, not a confirmed value.
# Target: DNA polymerase beta (Homo sapiens) (UniProt P06746)
# Test: qHTS Assay for Inhibitors of DNA Polymerase Beta
# Details: Pol beta primer extension/strand displacement, fluorescence kinetic; series mostly up to 114 µM
# How it was run: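 Human Pol beta at 10 nM; strand-displacement substrate 50 nM final. Compound exposure 15 min at room temperature before start, reaction 10 min at room temperature.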
# Potency means the concentration at half of the fitted maximal effect.
row,SMILES,Potency
1,C/C(=N\NC(=O)c1cc(O)ccc1O)c1cccc(NC(=O)c2cccc(Cl)c2)c1,"inconclusive: 44.7 µM [inhibitor, partial curve]"
2,Cc1ccc(C(=O)NN2C(=O)c3ccc(S(=O)(=O)c4ccc(C(=O)O)cc4)cc3C2=O)cc1,"inconclusive: 11.2 µM [inhibitor, full curve]"
3,c1ccc(OCc2nn3c(Cn4nnc5ccccc54)nnc3s2)cc1,"inconclusive: 17.8 µM [inhibitor, full curve]"
4,COc1ccc(S(=O)(=O)NCC2CCCN(C(=O)C=C(C)C)C2)cc1 (stereo not drawn),"inconclusive: 100 µM [inhibitor, single point]"
5,CN(C(=O)CSc1nnn(C)n1)c1ccccc1,"inconclusive: 0.794 µM [inhibitor, full curve, poor fit]"
6,O=C(CSc1oc(-c2ccco2)nc1S(=O)(=O)c1ccc(Cl)cc1)Nc1ccc(F)cc1,"inconclusive: 35.5 µM [inhibitor, full curve]"
7,CCOC(=O)C1=C(c2ccccc2)OC(N)=C(C#N)C1C1CCCCC1 (stereo not drawn),"inconclusive: 6.31 µM [inhibitor, full curve]"
8,C=CCn1c(=N)n(CC(=O)c2cccc([N+](=O)[O-])c2)c2ccccc21,"inconclusive: 10 µM [inhibitor, full curve]"
9,C=CCN(C(=O)c1ccc2c(c1)nnn2C)c1ccccc1,"inconclusive: 25.1 µM [inhibitor, single point]"
10,Cc1cccc(N2CCN(C(=O)c3cn4ccccc4n3)CC2C)c1 (stereo not drawn),inactive
11,O=C(Nc1cccc(C(F)(F)F)c1)c1cc(S(=O)(=O)N2CCCC2)c[nH]1,inactive
12,CCCc1cc(-c2n[nH]c(C)c2-c2ccc(C(=O)OCC)o2)c(O)cc1O,"inconclusive: 50.1 µM [inhibitor, partial curve]"
13,Cc1cc2c(cc1S(=O)(=O)Nc1c(C)cccc1C)n(C)c(=O)c(=O)n2C,"inconclusive: 0.141 µM [inhibitor, full curve, poor fit]"
14,COc1ccc(-n2nnc(-c3nsc(NC(=O)c4ccc(C)c(C)c4)n3)c2C)cc1Cl,"inconclusive: 5.62 µM [inhibitor, full curve, poor fit]"
15,COc1ccc(CNc2ncc(-c3ccc(Br)cc3)n2C)cc1OC,inactive
16,O=C(CCS(=O)(=O)c1ccc(Br)cc1)NCc1ccco1,"inconclusive: 89.1 µM [inhibitor, single point]"
17,CCOc1ccc(NC(=O)CCc2nc3cccnc3n2-c2ccccc2)cc1,inactive
18,COc1ccc(NC(=O)CCCn2c(=O)c3sccc3n(Cc3ccccc3)c2=O)cc1,inactive

# Exported with bars between the fields: entries from further up
row | SMILES | Potency
17 | CCOc1ccc(NC(=O)CCc2nc3cccnc3n2-c2ccccc2)cc1 | inactive
18 | COc1ccc(NC(=O)CCCn2c(=O)c3sccc3n(Cc3ccccc3)c2=O)cc1 | inactive
